Variants at the background level are over-represented here.
B1: tRNA (parent)
chain: GUUCCGUUGGCGUAAUGGUAACGCGUCUCCCUCCUAAGGAGAAGACUGCGGGUUCGAGUCCCGUACGGAACG

Variants of: B1
Test: yeast fitness relative to wild type (ratio to wild type); higher = fitter; tRNA-Arg(CCU), competitive growth, 37 C, YPD
Outline: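 A pool of Saccharomyces cerevisiae strains, each with a tRNA-Arg(CCU) gene variant at the native genomic locus, was competed in YPD at 37°C for 24 hours across six parallel replicates. The variants had been chemically synthesised at a 3% per-site mutation rate over 69 sites, and gene amplicons before and after competition were read by 100-nucleotide paired-end sequencing. Darwinian fitness relative to wild type rested on changes in genotype frequencies. Genotypes required ≥ 100 starting reads, and estimates < 0.5 were set to 0.5.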

Compared with GUUCCGUUGGCGUAAUGGUAACGCGACUCCCUAGUAAGGAGAAGACUGCGGGUUCGAGUCCCGUACGGAACG [U26A C33A C34G], GUUCCGAUGGCGGAAUGGUAACGCGUCUCCCUCCUAAGGAGAAGACUGCGGGUUCGAGUCCCGUAAGGAACG [U7A U13G C66A] is lower in yeast fitness: 0.644 for the first, no more than 0.5 for the second.

Compared with GUUGCGUCGGCGUAAUGGUAACGUGUCUCCCUCCUAAGGAGAGGACUGCGGGUUCGAGUCCCGUACGGAACG [C4G U8C C24U A43G], GUUCCGUUGGCGUAAUGGUAACGCGCCUCCCUCCUAAGGAGAAGACUGCCGGUUCGUGUCCCGUACGGAACG [U26C G50C A57U] is lower in yeast fitness: 0.527 for the first, no more than 0.5 for the second.

Compared with GUUCCGUUGGCGUAAUGGUAACGCAUCUCCCUCCUAAGGAGAACACUGCCGGUUCGGGUCCCGCACGGAACG [G25A G44C G50C A57G U64C], GUUCCGUUGGCGUAAUGGUAACGCGUCUCCCUCUUAAGGAGAAGACUGCGGGUUCGAGUCCCGUACGGAGCG [C34U A70G] is higher in yeast fitness: no more than 0.5 for the first, 0.803 for the second.

GUUCCGUUGGCGUAAUGGUAACGCGCCUUCCUCCUAAGGAGAGGACUGCGGGUUCGAGUCCCGUACGGAACG [U26C C29U A43G] and GUUCCGUUGGAGUAAUGGUAACACGUCUCCCUCCUAAGAAGAAGACUGCGGGUUCGAGUCCCGUACGGAACG [C11A G23A G39A] cannot be ordered by yeast fitness: no more than 0.5 for the first, no more than 0.5 for the second.

First: GUUCCGUUGGCGUAAUGGCAAGGCGUCUCCCUCCUAAGGAGAAGACUGCGGGUUCGAGUCCCGUACGGAACG [U19C C22G]
Second: GUUCCCUUGGAGUAAUGGUAACGCGUCUCCCUCGUAAGGAGAAGACUGCGGGUUCGAGUCGGGUACGGAACG [G6C C11A C34G C61G C62G]
The yeast fitness of the first is higher: 0.978 for the first, no more than 0.5 for the second.

Compared with GUUCCGUUGGCGUAAUGGUAGCGCGUCUCCCUCCUAAGGAGAAGACUGCGGGUUCGACCCCCAUACGGAACG [A21G G58C U59C G63A], GUUCCGUUGGCGUAAUUGUGACGCGUCUCCCUCCUAAGGAGAAGACUGCGGGUUCGAGACCCGUACGGACCG [G17U A20G U59A A70C] is lower in yeast fitness: 0.701 for the first, no more than 0.5 for the second.

Going from GUUCGGUUGGCGUAAUGGUAACGCGUCUCCCUCCUAAGGAGAAGACUGCGGGUUAGAGUCCUGUACGGAACG [C5G C55A C62U] to GUUCCCUUGGCGUAAUGGUAACGCGUCUCCCUCCUAAGGAGAAGUCUGAGGCUUCAAGUCCCGUACGGGACG [G6C A45U C49A G52C G56A A69G], the yeast fitness falls from 0.546 to no more than 0.5.

First: GUUCUGUUGGCGUAAUGGUAACGCGUCUCCCUCGCAAGGAGAAGACUGCGGGUUCGAGUCCCGUACGGAACG [C5U C34G U35C]
Second: GUUCCGUUGGCGUAAUGGUAACGGGUCUCCCUCCUCAGGAGUAGACUGCGGGUUCGUGUCCCGUACGGAACG [C24G A36C A42U A57U]
The yeast fitness of the first is higher: 0.533 for the first, no more than 0.5 for the second.

GUUCCCUUGGCGUGAUGGUCACGCGUCUCCCUCCUAAGGAGAAGACUGCGGGUUCGAGUCCGGUACGGAACG [G6C A14G A20C C62G] and GUUCGGAUGGCGUAAUGGUAACGCGUCUCCCUCCUAAGGAGAACACUGCGGGUUCGAGUCCCGAACGGAACG [C5G U7A G44C U64A] cannot be ordered by yeast fitness: no more than 0.5 for the first, no more than 0.5 for the second.

Compared with GUUCCGUUGGCGUAAUGGUAACGCGUCUCCCUCCUAAGCAGAAGACUGCGGGUUCGAGUCCCGUACGGAACG [G39C], GUUCCGUUGGCGUAAUGGUAACGCGUCUCUCUCCUAAGGAGAAGACGGCGGGUUCGAGUCCCGUACGGAACG [C30U U47G] is lower in yeast fitness: 0.93 for the first, 0.588 for the second.

GUUACGUUGGCGUAAUGGUAACGCGUCUCGCUCCUAAGGUGAAAACUGCAGGUUUGAGUCCCGUACGGAACG [C4A C30G A40U G44A G50A C55U] and GUUCCGUUGGCGUAAUGGUAACGGGUCUCCCUCGUAAGGAGACGACUGUGGGUUCGCGUCCCGUACGGAACG [C24G C34G A43C C49U A57C] cannot be ordered by yeast fitness: no more than 0.5 for the first, no more than 0.5 for the second.

GUUCCGUUGGCGUAAUGGUAACGCGUCUCCCUCCUAAGGAGAAGACUGUGGGUUGGAGUCCCAUAUGGAACG [C49U C55G G63A C66U] and GUUCCGUUGGCGUAGUAGUAACGCGGCUCUCUCCUAAGGAGAAGACUGCGGAUUCGAGUCCCGUACGGAACG [A15G G17A U26G C30U G52A] cannot be ordered by yeast fitness: no more than 0.5 for the first, no more than 0.5 for the second.

GUGCCAUCGGCGUAAUGGUAACGCGUCUCCCUCCUAAGGAGAAGACUGCGGGUUCGAGUCCCGUACGGAACG [U3G G6A U8C] and GUGCCGUUGGCGUAAUGGUAACGAGUCUCUCUCCUAAGGAGAAGACUGCGGGUUCGAGUCCCGUACGGAACG [U3G C24A C30U] cannot be ordered by yeast fitness: no more than 0.5 for the first, no more than 0.5 for the second.

GUUCCGUUGGGGUAAUGGUAACGCGUCUCCUUACUAAGGAGAAGACUGCGGGUUCGAGUCCCGUAAGGAACG [C11G C31U C33A C66A] and GUUCCGAUGUCGUAAUGGUAACGCGUCUCCCUCUUAAGGAGAAGACUGCGGGUUCGAGUCCCGUACGGAACG [U7A G10U C34U] cannot be ordered by yeast fitness: no more than 0.5 for the first, no more than 0.5 for the second.

GAUCCGUUGGCGUAAUGGCAACGCGUCUCCCUCCUAAGGAGAAGACUCCGGGUUCGAGACCCGUACGGAACG [U2A U19C G48C U59A] and GUUCCGUUGGCGUAAUGGUAACGCGUCUGCCUCCUAAGGAGAUGACUGAGGGUUCGAGUACCGUACGGAACG [C29G A43U C49A C60A] cannot be ordered by yeast fitness: no more than 0.5 for the first, no more than 0.5 for the second.

GUUCCGUUGGCGUAAUGGUAAGGCGUCUCCCUCCUAAGGAGAAGACUGCGGGUUAGAGUCCCGUUCGGAACG [C22G C55A A65U] and GUUCAGUUGGCGUAGUGGUAACGCGUCUUCCUCUUAAGGCGAAGACUGCGGGUUCAAGUCCCGUACGGAACG [C5A A15G C29U C34U A40C G56A] cannot be ordered by yeast fitness: no more than 0.5 for the first, no more than 0.5 for the second.

GUUCCGUUGGGGUAAUGGUAACGCGUUUCCCUGCUAAGGAGAAGACUGCGGGUUCGAGUCCCGUACGGCACG [C11G C27U C33G A69C] and GUUCCGUUGGCGUAAUGGUAACGAGUCUCCGUCCUAAGGAGAAGACUGCGGGUUCGAGUUCCGUACGGAACG [C24A C31G C60U] cannot be ordered by yeast fitness: no more than 0.5 for the first, no more than 0.5 for the second.

GUUCCGUUGGCGUAAUGGUCACGCGUCUCGAUCCUAAGGAGAAGACUGCAGGUCCGAGACCCGUACGGAACG [A20C C30G C31A G50A U54C U59A] and GUUCCGUUGGCGUGAUGGUAACGCGUCUCCCUCCUAAAGCGAAGACUGUAGGUACGAGUCCCGUACGGAACG [A14G G38A A40C C49U G50A U54A] cannot be ordered by yeast fitness: no more than 0.5 for the first, no more than 0.5 for the second.

In the case of GUUCCGUUGGCGUAAUGGUAACGCGUCUCCCUCCUAGGGAGAAGACAGCGGGUUCAAGCCGCGUACGGAACG [A37G U47A G56A U59C C61G], the yeast fitness is reported as no more than 0.5.

— the RNAGym collection of RNA variant scans (doi:10.1126/science.aae0568)
